# Experimental data taken from the supplement of paper PMC8728848.
# Some of the results follow.
# B1: GS7807F-bth-514-18-514 (Bacteroides thetaiotaomicron) (protein)
# chain: AGSCTGNFEEYNTNQFQIHEADPSTLMKSMIETIVNIQQNDSQMMDQMVGQLGGYLTCANVWSGTNFGTFNQSDAWNAGPWNTNFEKIYGNFFQIQEATNESGHYYAFARMIRAITMLRVADCYGPMPYSQVKKGNFYVAYDTEEQVYKNIMEDFASAANVLYNYYKDTNGNAPLASNDPVFSGNYANWARLANSMRLRVAIRISTAYPEMAKENAEAAASHEAGLIEANNDNAMMDCGSQTNPYQLAAVSWGDLRVNANIVDYMNGYGDPRMSKYFNHSTFTGHTQEYVGMRSGEDGFAKSDVAGYSIPAITGTSKLLVFCAAETAFLRAEGKLKNWSVGNKSAKEYYEEGIKLSMEQYGTTMPDNYLTNTEKPTVSHNNDPRGHAYTISNTVAVAWNDNNEEENLQRIITQKWIANYPLGLEAWAEYRRTGYPELYPCIDNLSPSGVDSKRGMRRLRFPYTEVQNNHSNYQQGVSYLKNGGPDNEATDLSWGKTN
# Key:
# Experiment in all cases: glycan array binding signal (z-score within array); higher = stronger binding
# Details in all cases: glycan notation: IUPAC condensed, linker removed
# Neu5Ac(a2-8)Neu5Ac = target: Neu5Ac(a2-8)Neu5Ac
# Summary of the method: (§1)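 The binding signal is a Z-score computed within each array. Data were drawn from 3228 arrays in the Consortium for Functional Glycomics database, restricted to those with a known protein sequence. Scores were averaged over arrays of the same protein sequence at different concentrations or buffers, and over linkers, and negative values can be taken as non-binding.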
# [1] = target: Neu5Ac(a2-8)Neu5Ac(a2-3)Gal(b1-3)GalNAc(b1-4)[Neu5Ac(a2-3)]Gal(b1-4)Glc
# Summary of the method: as §1
# [2] = target: Neu5Ac(a2-8)Neu5Ac(a2-3)Gal(b1-3)GalNAc(b1-4)[Neu5Ac(a2-8)Neu5Ac(a2-3)]Gal(b1-4)Glc
# Summary of the method: as §1
# [3] = target: Neu5Ac(a2-8)Neu5Ac(a2-3)Gal(b1-4)Glc
# Summary of the method: as §1
# [4] = target: Neu5Ac(a2-8)Neu5Ac(a2-3)Gal(b1-4)GlcNAc
# Summary of the method: as §1
# [5] = target: Neu5Ac(a2-8)Neu5Ac(a2-3)[Gal(b1-3)GalNAc(b1-4)]Gal(b1-4)Glc
# Summary of the method: as §1
# [6] = target: Neu5Ac(a2-8)Neu5Ac(a2-3)[GalNAc(b1-4)]Gal(b1-4)Glc
# Summary of the method: as §1
# [7] = target: Neu5Ac(a2-8)Neu5Ac(a2-8)Neu5Ac
# Summary of the method: as §1
# [8] = target: Neu5Ac(a2-8)Neu5Ac(a2-8)Neu5Ac(a2-3)Gal(b1-4)Glc
# Summary of the method: as §1
# [9] = target: Neu5Ac(a2-8)Neu5Ac(a2-8)Neu5Ac(a2-3)[Gal(b1-3)GalNAc(b1-4)]Gal(b1-4)Glc
# Summary of the method: as §1
# [10] = target: Neu5Ac(a2-8)Neu5Ac(a2-8)Neu5Ac(a2-3)[GalNAc(b1-4)]Gal(b1-4)Glc
# Summary of the method: as §1
# [11] = target: Neu5Ac(a2-8)Neu5Ac(a2-8)Neu5Ac(a2-8)Neu5Ac(a2-3)[GalNAc(b1-4)]Gal(b1-4)Glc
# Summary of the method: as §1
# [12] = target: Neu5Ac(a2-8)Neu5Gc(a2-3)Gal(b1-4)GlcNAc
# Summary of the method: as §1
# [13] = target: Neu5Ac(b2-6)Gal(b1-4)GlcNAc
# Summary of the method: as §1
# Neu5Ac(b2-6)GalNAc = target: Neu5Ac(b2-6)GalNAc
# Summary of the method: as §1
# [14] = target: Neu5Ac9Ac(a2-3)Gal(b1-3)GlcNAc
# Summary of the method: as §1
# [15] = target: Neu5Ac9Ac(a2-3)Gal(b1-4)GlcNAc
# Summary of the method: as §1
# [16] = target: Neu5Ac9Ac(a2-6)Gal(b1-4)GlcNAc
# Summary of the method: as §1
# [17] = target: Neu5Gc(a2-3)Gal(b1-3)GlcNAc
# Summary of the method: as §1
# [18] = target: Neu5Gc(a2-3)Gal(b1-3)[Fuc(a1-4)]GlcNAc
# Summary of the method: as §1
# Neu5Gc(a2-3)Gal(b1-4)Glc = target: Neu5Gc(a2-3)Gal(b1-4)Glc
# Summary of the method: as §1
# [19] = target: Neu5Gc(a2-3)Gal(b1-4)GlcNAc
# Summary of the method: as §1
# [20] = target: Neu5Gc(a2-3)Gal(b1-4)GlcNAc(b1-3)Gal(b1-4)GlcNAc(b1-2)Man(a1-3)[Neu5Gc(a2-3)Gal(b1-4)GlcNAc(b1-3)Gal(b1-4)GlcNAc(b1-2)Man(a1-6)]Man(b1-4)GlcNAc(b1-4)GlcNAc
# Summary of the method: as §1
# [21] = target: Neu5Gc(a2-3)Gal(b1-4)[Fuc(a1-3)]GlcNAc
# Summary of the method: as §1
# [22] = target: Neu5Gc(a2-6)Gal(b1-4)GlcNAc
# Summary of the method: as §1
# Neu5Gc(a2-6)GalNAc = target: Neu5Gc(a2-6)GalNAc
# Summary of the method: as §1
# [23] = target: Neu5Gc(a2-8)Neu5Ac(a2-3)Gal(b1-4)GlcNAc
# Summary of the method: as §1
# [24] = target: Neu5Gc(a2-8)Neu5Gc(a2-3)Gal(b1-4)GlcNAc
# Summary of the method: as §1
# [25] = target: Neu5Gc(a2-8)Neu5Gc(a2-3)Gal(b1-4)GlcNAc(b1-3)Gal(b1-4)GlcNAc
# Summary of the method: as §1
# [26] = target: Neu5Gc(a2-8)Neu5Gc(a2-6)Gal(b1-4)GlcNAc
# Summary of the method: as §1
# [27] = target: Neu5Gc(b2-6)Gal(b1-4)GlcNAc
# Summary of the method: as §1
binder,measurement,setting,value
B1,glycan array binding signal (z-score),Neu5Ac(a2-8)Neu5Ac,-0.857
same,glycan array binding signal (z-score),[1],-0.844
same,glycan array binding signal (z-score),[2],0.524
same,glycan array binding signal (z-score),[3],-0.877
same,glycan array binding signal (z-score),[4],-0.901
same,glycan array binding signal (z-score),[5],0.122
same,glycan array binding signal (z-score),[6],3.32
same,glycan array binding signal (z-score),[7],-0.655
same,glycan array binding signal (z-score),[8],-0.82
same,glycan array binding signal (z-score),[9],-0.798
same,glycan array binding signal (z-score),[10],1.19
same,glycan array binding signal (z-score),[11],2.31
same,glycan array binding signal (z-score),[12],-0.888
same,glycan array binding signal (z-score),[13],-0.329
same,glycan array binding signal (z-score),Neu5Ac(b2-6)GalNAc,-0.845
same,glycan array binding signal (z-score),[14],-0.605
same,glycan array binding signal (z-score),[15],-0.825
same,glycan array binding signal (z-score),[16],0.148
same,glycan array binding signal (z-score),[17],-0.886
same,glycan array binding signal (z-score),[18],-0.819
same,glycan array binding signal (z-score),Neu5Gc(a2-3)Gal(b1-4)Glc,-0.586
same,glycan array binding signal (z-score),[19],-0.886
same,glycan array binding signal (z-score),[20],-0.775
same,glycan array binding signal (z-score),[21],2.31
same,glycan array binding signal (z-score),[22],-0.33
same,glycan array binding signal (z-score),Neu5Gc(a2-6)GalNAc,-0.758
same,glycan array binding signal (z-score),[23],-0.565
same,glycan array binding signal (z-score),[24],-0.884
same,glycan array binding signal (z-score),[25],-0.908
same,glycan array binding signal (z-score),[26],-0.26
same,glycan array binding signal (z-score),[27],0.477

# Part of the list above, reformatted:
binder | measurement | setting | value
B1 | glycan array binding signal (z-score) | [7] | -0.655
same | glycan array binding signal (z-score) | [25] | -0.908
